From article PMC9140312

Legend:
Test in all cases: affinity purification with mass spectrometry; purified Dlar Ig1-Ig2, Dlar FN4-FN5 or sDlar attached to NHS-Activated Sepharose, incubated with pre-cleared WT L3 larval lysate; washed three times with lysis buffer minus detergent; LC-MS/MS; hits enriched at least 10-fold over control; only the target purified
[1] = target: T1, Dlar Ig1-Ig2 (residues 32-237) (Drosophila) (UniProt P16621)
T1 sequence: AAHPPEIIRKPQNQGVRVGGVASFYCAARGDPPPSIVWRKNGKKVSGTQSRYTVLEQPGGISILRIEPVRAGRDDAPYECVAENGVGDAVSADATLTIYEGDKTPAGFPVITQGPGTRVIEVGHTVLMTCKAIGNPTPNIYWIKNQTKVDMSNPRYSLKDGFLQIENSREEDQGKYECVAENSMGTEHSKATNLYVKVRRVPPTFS

[2] = target: T2, Dlar FN4-FN5 (residues 608-812) (Drosophila) (UniProt P16621)
T2 sequence: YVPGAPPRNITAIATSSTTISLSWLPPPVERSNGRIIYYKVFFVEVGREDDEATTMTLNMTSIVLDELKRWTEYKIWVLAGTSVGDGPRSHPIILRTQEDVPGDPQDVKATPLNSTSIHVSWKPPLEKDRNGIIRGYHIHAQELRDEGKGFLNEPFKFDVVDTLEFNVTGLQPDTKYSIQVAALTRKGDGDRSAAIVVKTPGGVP

[3] = target: T3, sDlar, the entire ectodomain of soluble Dlar (Drosophila) (UniProt P16621)
T3 sequence: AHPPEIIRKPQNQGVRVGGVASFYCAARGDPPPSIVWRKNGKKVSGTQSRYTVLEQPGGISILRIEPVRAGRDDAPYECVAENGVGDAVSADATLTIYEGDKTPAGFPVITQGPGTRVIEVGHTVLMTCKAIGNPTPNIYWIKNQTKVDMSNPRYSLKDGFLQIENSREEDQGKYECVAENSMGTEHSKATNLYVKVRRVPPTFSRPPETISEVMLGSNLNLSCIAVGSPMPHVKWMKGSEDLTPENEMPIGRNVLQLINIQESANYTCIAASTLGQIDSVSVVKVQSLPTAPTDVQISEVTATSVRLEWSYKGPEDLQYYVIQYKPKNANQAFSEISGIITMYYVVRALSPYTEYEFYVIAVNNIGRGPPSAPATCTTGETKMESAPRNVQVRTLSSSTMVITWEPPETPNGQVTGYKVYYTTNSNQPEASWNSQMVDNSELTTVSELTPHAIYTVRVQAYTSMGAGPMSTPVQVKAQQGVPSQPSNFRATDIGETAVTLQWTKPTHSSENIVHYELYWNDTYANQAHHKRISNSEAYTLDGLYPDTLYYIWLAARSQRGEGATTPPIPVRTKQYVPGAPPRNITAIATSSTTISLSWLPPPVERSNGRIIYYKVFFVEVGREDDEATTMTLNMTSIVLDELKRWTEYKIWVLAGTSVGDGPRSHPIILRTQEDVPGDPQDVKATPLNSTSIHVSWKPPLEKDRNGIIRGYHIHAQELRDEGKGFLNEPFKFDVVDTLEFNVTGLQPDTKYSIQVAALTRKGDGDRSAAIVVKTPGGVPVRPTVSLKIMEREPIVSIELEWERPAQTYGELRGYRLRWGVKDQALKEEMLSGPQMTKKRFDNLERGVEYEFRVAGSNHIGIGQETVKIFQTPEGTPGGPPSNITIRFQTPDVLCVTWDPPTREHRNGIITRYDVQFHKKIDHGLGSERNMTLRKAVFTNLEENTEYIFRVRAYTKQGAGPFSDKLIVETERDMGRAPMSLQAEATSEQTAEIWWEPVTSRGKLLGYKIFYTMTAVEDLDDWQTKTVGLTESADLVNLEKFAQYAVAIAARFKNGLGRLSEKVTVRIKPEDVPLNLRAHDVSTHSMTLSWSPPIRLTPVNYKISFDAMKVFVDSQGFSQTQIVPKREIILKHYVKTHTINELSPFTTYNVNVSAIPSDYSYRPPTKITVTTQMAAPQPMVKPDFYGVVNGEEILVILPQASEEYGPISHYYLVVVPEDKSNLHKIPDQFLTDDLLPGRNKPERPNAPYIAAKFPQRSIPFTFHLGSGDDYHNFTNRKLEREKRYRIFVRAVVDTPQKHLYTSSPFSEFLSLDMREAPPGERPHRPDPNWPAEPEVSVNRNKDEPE

[4] = target: T1, Dlar Ig1-Ig2 (residues 32-237) (Drosophila); remark: listed apart in the source
[5] = target: T2, Dlar FN4-FN5 (residues 608-812) (Drosophila); remark: listed apart in the source
[6] = target: T3, sDlar, the entire ectodomain of soluble Dlar (Drosophila); remark: listed apart in the source

For “Secreted Wg-interacting molecule (Swim) (Drosophila (endogenous in L3 larvae))”, the binding [1] was “binds”.

“Drosophila Lar (Dlar), endogenous (from UniProt P16621 33-2029) (receptor)” was tested, and the binding [2] was “binds”, the binding [3] was “binds” and the binding [1] was “binds”.

B1: Syndecan (Sdc) (protein, UniProt P49415 29-399)
chain: QDQKSVKPSAAAPSAAASRPHDEIYIDDDSIEGSGGRGGIHEDLEKDPDYSGSGFGPDDEDAEPDQHSHSSHNTRISQSSNSGINTAHTPTQTSSTIPTTSTSTPMPTTTPTATTPASTTTAAATQISSFANSSSTTTTTLAPTIPAEPQQPLFPPFDKDLDTESSGDGIDADAEDDDEDDGDDKDYDYNKELDKEIDIDGPEPGHLPPVVHHNTVETGHIPTTDEIDVDGGDEDDNGDSDIDGPRIGGNDGDITERGPGAGGSNVHELDPNTNVNSQPSDTKGIDHRPNGNEVVIMSEDDRTSSFFSQPGILAAVIGGAVVGLLCAILVVMFIVYRMRKKDEGSYALDEPKRSPANNSYAKNANNREFYA
In the case of B1, the binding [4] is reported as “binds”.

B2: Division abnormally delayed (Dally) (protein, UniProt Q24114 27-602)
chain: KHLDLDGIHHHQHHLHSATTHHRRRLQRDSRAKDAVGGSTHQCDAVKSYFESIDIKSSGTYSEKGAICGGNCCNNATELELRDKAAGMFEQLLHHHTSSLRGVLETNAKQFQSHVLELAQISENMTHSLFSKVYTRMVPSSRMMIHQLYTEIMNHLIYTSNYTNSNGQLGRRGIGSVQSNLEEAVRHFFVQLFPVAYHQMVHLSKNNLGDLHEDYVNCLQHNFDEMHPFGDIPQQVQSNLGKSVHMSNVFMNALLQAAEVLSEADALYGEQLTDTCKLHLLKMHYCPNCNGHHSSSRSETKLCYGYCKNVMRGCSAEYAGLLDSPWSGVVDSLNNLVTTHILSDTGIINVIKHLQTYFSEAIMAAMHNGPELEKKVKKTCGTPSLTPYSSGEPDARPPPHKNNVKWATDPDPGMVLFLSTIDKSKEFYTTIVDNFCDEQQHSRDDHSCWSGDRFGDYTQLLINPGTDSQRYNPEVPFNAKAQTGKLNELVDKLFKIRKSIGAAAPSNSIQATHDIQNDMGEGSGGGEGQIGDDEEEYGGAHGSGDGSGDGPHTPIEESEGTTTNEVESRDSGKTSG
In the case of B2, the binding [4] is reported as “binds”.

B3: Wnt/Wingless (Wg) (ligand, UniProt P09615 18-468)
chain: GSSLSQVEGKQKSGRGRGSMWWGIAKVGEPNNITPIMYMDPAIHSTLRRKQRRLVRDNPGVLGALVKGANLAISECQHQFRNRRWNCSTRNFSRGKNLFGKIVDRGCRETSFIYAITSAAVTHSIARACSEGTIESCTCDYSHQSRSPQANHQAGSVAGVRDWEWGGCSDNIGFGFKFSREFVDTGERGRNLREKMNLHNNEAGRAHVQAEMRQECKCHGMSGSCTVKTCWMRLANFRVIGDNLKARFDGATRVQVTNSLRATNALAPVSPNAAGSNSVGSNGLIIPQSGLVYGEEEERMLNDHMPDILLENSHPISKIHHPNMPSPNSLPQAGQRGGRNGRRQGRKHNRYHFQLNPHNPEHKPPGSKDLVYLEPSPSFCEKNLRQGILGTHGRQCNETSLGVDGCGLMCCGRGYRRDEVVVVERCACTFHWCCEVKCKLCRTKKVIYTCL
B3 was tested, and the binding [4] was “binds”.

B4: Glutactin (Glt), endogenous (protein, UniProt P33438 18-1026)
chain: HSVGLRPDYNDYSDEDTRRDWLPEPLKPVPWQSETRYAQPQEAVVQAPEVGQILGISGHKTIANRPVNAFLGIRYGTVGGGLARFQAAQPIGYQGRVNATVQSPNCAQFPELDRLRLSESRGENVDDCLTLDIYAPEGANQLPVLVFVHGEMLFDGGSEEAQPDYVLEKDVLLVSINYRLAPFGFLSALTDELPGNVALSDLQLALEWLQRNVVHFGGNAGQVTLVGQAGGATLAHALSLSGRAGNLFQQLILQSGTALNPYLIDNQPLDTLSTFARLARCPPPSINPSAQGLKPLYDCLARLPTSQLVAAFEQLLLQNEHLGLTQLGGFKLVVGDPLGFLPSHPASLATNSSLALPMIIGATKDASAFIVSRIYDQLARLQSRNVSDYIDVVLRHTAPPSEHRLWKQWALREIFTPIQEQTASLQTVAPGLLELSNYILYRAPVINSISQSYRSVPAYLYTFDYRGEHHRFGHLSNPLPFGVDASLSDDSVYLFPYPPEASRLNPLDRSLSRALVTMWVNFATTGVPNPSSGVWPQATSEYGPFLRFTNNQQSPLELDPHFGEGIYLPNYRVIYKPTTNFSPPITTTTTTTTTTTTTSRPYAYNPYANWQNRPSQQHPNWHPADPEYVRAQEARQQEFIREREQRRREQQLRDQQRYPQQEPREQQDERIRQQREQEERLRQQREQEERLRQQRELEERIRQQQEREQYEREQQEREQREREELERQQREREQQQPEQQPEYNPEPVNPWGYPVQEPQPDDNPEDGRLPYPSYEQYGPEGNENLPETDANRNFSEEDREQQQQEQLRREQQEQQEREYQLQLEREQQEREQQERGQQEPGPEEYPSYEEYSRALQEKNAERDRIYAEEQERERQQQETLLQENQQHPEQSLPEEQPTHPNYEAYDGDRSYAEEQEREQQRRDQVEQEREEQPDEDQGEEYERSPDEEEAAEQDVLKVEDFPSYEAYLEAATKLREEQEEQEKLEEERYRAQQEEEDRIQAERERNSRN
For B4, the binding [5] was “no binding”, the binding [6] was “no binding” and the binding [4] was “no binding”.

Like-named read-outs stand apart in the source and are kept apart here. Results are given in words; binding and its absence hold for the method and conditions named. Binding seen in cells or lysates may run through a third protein. These calls come from enrichment with a bait or labelling near it, and not all partners need be listed. For some of these results: No binding means not detected with the bait.
